Measured values: publication PMC7851937
No constants are given. Whether binding was seen depends on the method and setting. Binding seen in cells or lysates may run through a third protein. Some results given as binding are weak or reduced against the parent protein; the word gives no strength.

Sequences of proteins named here, by UniProt entry; tags and fusion partners are left off. A change or cut given only in a name is not applied to a line headed by its entry.
UniProt Q86TM6: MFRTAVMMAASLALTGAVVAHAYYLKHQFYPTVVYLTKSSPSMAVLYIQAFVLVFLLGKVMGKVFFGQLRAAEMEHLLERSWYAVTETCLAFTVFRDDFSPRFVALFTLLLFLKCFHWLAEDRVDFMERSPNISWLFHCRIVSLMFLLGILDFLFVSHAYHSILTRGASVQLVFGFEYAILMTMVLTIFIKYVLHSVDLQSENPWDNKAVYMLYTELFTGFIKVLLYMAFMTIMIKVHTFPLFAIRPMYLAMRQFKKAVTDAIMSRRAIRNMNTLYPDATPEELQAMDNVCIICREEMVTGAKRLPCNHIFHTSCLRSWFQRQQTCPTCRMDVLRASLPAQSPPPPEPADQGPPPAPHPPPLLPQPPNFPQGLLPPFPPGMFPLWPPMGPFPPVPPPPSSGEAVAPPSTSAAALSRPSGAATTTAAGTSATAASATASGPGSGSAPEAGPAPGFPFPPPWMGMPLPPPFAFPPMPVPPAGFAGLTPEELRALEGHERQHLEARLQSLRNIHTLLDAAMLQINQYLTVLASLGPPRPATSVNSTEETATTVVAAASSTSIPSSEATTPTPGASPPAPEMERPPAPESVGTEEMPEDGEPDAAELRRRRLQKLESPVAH
UniProt P08670: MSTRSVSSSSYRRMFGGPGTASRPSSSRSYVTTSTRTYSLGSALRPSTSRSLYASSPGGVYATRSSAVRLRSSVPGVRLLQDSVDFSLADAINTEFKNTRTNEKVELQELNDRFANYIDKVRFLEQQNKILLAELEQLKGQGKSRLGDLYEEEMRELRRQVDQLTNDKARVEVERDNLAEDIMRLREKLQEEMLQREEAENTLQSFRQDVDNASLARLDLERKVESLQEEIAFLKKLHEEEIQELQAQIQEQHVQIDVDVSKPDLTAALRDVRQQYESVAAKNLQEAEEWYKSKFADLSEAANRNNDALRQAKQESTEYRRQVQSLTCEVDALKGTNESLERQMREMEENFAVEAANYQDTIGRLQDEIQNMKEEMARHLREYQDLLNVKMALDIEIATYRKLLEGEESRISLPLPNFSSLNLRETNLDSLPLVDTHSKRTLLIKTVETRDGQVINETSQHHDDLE

What was measured:
Myc-HRD1 (human) = Myc-HRD1 (human) (UniProt Q86TM6); assay: co-IP; HEK293 cells cotransfected with Myc-HRD1 and Flag-Vimentin, MG132 10 μM; NP-40 whole-cell lysates immunoprecipitated with anti-Myc, immunoblot
Flag-Vimentin (human) = Flag-Vimentin (human) (UniProt P08670); assay: co-IP; HEK293 cells cotransfected with Flag-Vimentin and Myc-HRD1 or Myc-HRD1(C291S), MG132 10 μM; whole-cell lysates immunoprecipitated with anti-Flag, immunoblot

binding (Myc-HRD1 (human))	binding (Flag-Vimentin (human))	Substance
binds	–	Flag-Vimentin (from UniProt P08670 1-466)
–	binds	Myc-HRD1 (from UniProt Q86TM6 1-617) (enzyme)
–	no binding	Myc-HRD1(C291S) (from UniProt Q86TM6 1-617) (enzyme)
